Data set [1] concerns hGCGR mice. Nature of the data set: Sub-chronic treatment of hGCGR mice with GRA (Example 1): plasma total cholesterol, phytosterols, lathosterol, cholesterol synthesis. The format is in vivo. Conditions: 30 mpk QD for 5 days, vs vehicle; for cholesterol synthesis: D2O tracer. The procedure:
Male hGCGR mice (Transgenic Research, 8:295-302, 1999) at ˜12 wks of age maintained on chow diet were treated with vehicle and GRA Compounds A, B, and C at 30 mpk QD for 5 days (n=8). On Day 1, mice were administered the compounds followed by glucagon-induced glucose tolerance test. On Day 5, mice were fasted at 7:30 am. After dosing at ˜9:00 am, the blood glucose was measured at 2-h post dose with a glucometer; see FIG. 1. At 6-h post dose, the tail blood was collected for PK measurement. Mice were euthanized with CO2, and blood was collected by cardiac puncture. The liver was snap frozen in liquid nitrogen with a freezing clamp and saved in −80° C. Plasma was isolated by centrifuging the blood at 8000 rpm for 5 min. The plasma level of total cholesterol was measured by biochemical assay (Wako Chemicals Inc.). The plasma level of lathosterol and phytosterol was measured by LC/MS. To determine cholesterol synthesis. D2O was administered i.p. at 20 ml/kg on 24 h prior to takedown of the mice. The level of D2 in plasma water and plasma cholesterol was assayed by GC/MS for cholesterol synthesis. Asterisks denote statistical significance between treatment and vehicle groups.

Data set [2] relates to hGCGR mice. Nature of the data set: Dual tracer study for cholesterol absorption in hGCGR mice (Example 4). Conditions: 30 mpk QD for 9 days. The data set is classed as in vivo. The method, then: Male hGCGR mice at ˜12 wks of age maintained on chow or high cholesterol diet (n=8 group) were treated with vehicle and GRA Compound A@30 mpk QD for 9 days. Twenty four-hour feces before treatment and 3 days after treated were collected for fecal cholesterol characterization. On Day 4, mice were dosed with vehicle (0.5% MC, BID) or Compound A followed by administration with D6-cholesterol@15 mpk through p.o. and 13C-cholesterol@15 mpk through i.v. Blood was collected at 4, 24, 48, 72, and 96 h post injection by tail bleeding. For cholesterol synthesis, D2O was administered i.p. at 20 ml/kg on Day 7. On day 8, tail blood was collected for PK and mice were taken down for blood and liver collection. Plasma was isolated from blood by centrifuge at 8000 rpm for 5 min and submitted for GC/MS assay for cholesterol synthesis and absorption. Feces were sent to Taconic for fecal cholesterol assay. Asterisks denote statistical significance between treatment and vehicle groups. * p<0.05, **p<0.01, and ***p<0.001 by ANOVA.

Take `COc1ccc2cc(-c3cc(-c4cc(C(F)(F)F)ccc4F)nn3[C@@H](C)c3ccc(C(=O)NCCC(=O)O)cc3)ccc2c1` [Compound A]: in the data set with hGCGR mice [1], the cholesterol synthesis entry is “no significant effect”, the “plasma level of campesterol” value is given as “significantly induced”, the “plasma level of lathosterol” value is “no significant effect” and the “plasma level of sitosterol” value is given as “significantly induced”. In addition, the cholesterol synthesis result in the data set with hGCGR mice [2] (D2O) is reported as “No change”. Also, the cholesterol absorption entry in the data set with hGCGR mice [2] (dual tracer) is on record as “significantly increased”.

On to `Cc1cc(OC(CCC(F)(F)F)c2ccc(C(=O)NCCC(=O)O)cc2)cc(C)c1-c1ccc(C(C)(C)C)cc1` (centres unmarked) [Compound B, 3-{4-[1-(4′-tert-butyl-2,6-dimethyl-biphenyl-4-yloxy)-4,4,4-trifluoro-butyl]-benzoylamino}-propionic acid], for which, in the data set on hGCGR mice [1], the cholesterol synthesis result is “trends of increase”, the “plasma level of campesterol” value is “significantly induced”, the “plasma level of lathosterol” value is “trends of increase” and the “plasma level of sitosterol” value is given as “significantly induced”.

Take `Cc1cc(OC(CCC(C)(C)C)c2ccc(C(=O)NCCC(=O)O)cc2)cc(C)c1-c1ccc(C(F)(F)F)cc1` (centres unmarked) [Compound C, 3-{4-[1-(2,6-Dimethyl-4′-trifluoromethyl-biphenyl-4-yloxy)-4,4-dimethyl-pentyl]-benzoylamino}-propionic acid]: in the data set with hGCGR mice [1], the cholesterol synthesis entry is on record as “trends of increase”, the “plasma level of campesterol” value was “significantly induced”, the “plasma level of lathosterol” value is listed as “trends of increase” and the “plasma level of sitosterol” value is listed as “significantly induced”.
